Assay results published in PubChem BioAssay AID1347422 (Sanford-Burnham Center for Chemical Genomics, 2020).
Whole data set: some 1,000 compounds, median “thermal shift dTm” near 0.19, cut for the highest 2% near 1.7. Some of the results follow. Activity calls are given as the source filed them.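 Rule for the calls: active = mean rise in melting temperature of at least 1 degC over same-plate control wells; inactive = below that, where a call was filed.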

Amino acid sequences for entries named in this document (tags omitted). A change or cut given only in a name is not applied to a line headed by its entry.
UniProt O00391: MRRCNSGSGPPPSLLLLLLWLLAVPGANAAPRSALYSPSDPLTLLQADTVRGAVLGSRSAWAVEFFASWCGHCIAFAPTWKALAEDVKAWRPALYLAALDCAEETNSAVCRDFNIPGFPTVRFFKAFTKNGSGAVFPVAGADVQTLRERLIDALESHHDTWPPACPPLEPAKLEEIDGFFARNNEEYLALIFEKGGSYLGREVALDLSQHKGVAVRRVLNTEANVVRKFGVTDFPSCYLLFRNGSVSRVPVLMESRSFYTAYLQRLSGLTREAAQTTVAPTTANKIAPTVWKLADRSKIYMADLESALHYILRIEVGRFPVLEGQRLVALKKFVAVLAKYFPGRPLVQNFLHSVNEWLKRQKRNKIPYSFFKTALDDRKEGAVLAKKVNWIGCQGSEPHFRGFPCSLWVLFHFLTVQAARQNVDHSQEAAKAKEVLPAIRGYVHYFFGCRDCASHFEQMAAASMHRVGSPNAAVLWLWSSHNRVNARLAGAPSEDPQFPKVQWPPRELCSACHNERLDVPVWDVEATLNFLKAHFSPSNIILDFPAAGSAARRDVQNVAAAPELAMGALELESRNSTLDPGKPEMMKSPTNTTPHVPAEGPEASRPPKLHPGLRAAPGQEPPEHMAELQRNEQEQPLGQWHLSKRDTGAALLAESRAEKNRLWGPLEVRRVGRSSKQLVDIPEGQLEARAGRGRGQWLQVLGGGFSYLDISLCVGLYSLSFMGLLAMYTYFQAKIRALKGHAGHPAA

What follows are compounds tested against Sulfhydryl oxidase 1 (Homo sapiens) (UniProt O00391) (assay: ligand-induced melting shift of human QSOX1 – biophysical, protein thermal shift, single concentration, QSOX1 inhibitor project, confirmation (AID 1347422;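 note: dTm is compound Tm minus mean Tm of DMSO-only wells on that plate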)). Settings: recombinant hQSOX1 thermal shift, Sypro Orange, at 25 µM, stronger effect = higher value.

Row | Structure (SMILES) | thermal shift dTm
1 | CCOC(=O)C1=C(C)N=C2SCC(=O)N2C1c1ccc(Br)cc1 (stereo unspecified) | inactive: -0.09 °C
2 | Cc1ccnc(Nc2nc(-c3ccc(Cl)cc3)cs2)c1 | inactive: -0.13 °C
3 | CCOc1ccccc1NC(=O)CN(c1cc(Cl)ccc1Cl)S(C)(=O)=O | inactive: -8.23 °C
4 | ONc1nc(-c2ccccc2)cc(-c2ccc(F)cc2)n1 | 0.32 °C
5 | CCN1CCOC(CC(=O)Nc2ccc(Cl)c(C(F)(F)F)c2)C1=O (stereo unspecified) | active: 1.02 °C
6 | COc1ccc(NC(=O)Nc2cccc(Cn3cc(Cl)cn3)c2)cc1 | active: 2.14 °C
7 | COC(=O)c1cccc(NC(=O)c2ccc(Cl)s2)c1 | 0.04 °C
8 | CC(=O)Nc1ccc(OC(=O)c2cccc(Br)c2)cc1 | inactive: -0.04 °C
9 | N#Cc1cnc(SCC(=O)Nc2ccc(Cl)c(Br)c2)nc1N | 0.32 °C
10 | CC1Oc2ccc(-c3csc(NC(=O)COc4ccc(Cl)cc4)n3)cc2NC1=O (stereo unspecified) | inactive: -0.1 °C
11 | O=C(Nc1ccc(Cl)cc1)Nc1cccc(C(=O)NCc2ccco2)c1 | active: 3.11 °C
12 | OCc1ccc(OCc2ccc(Cl)cc2)c(Br)c1 | 0.16 °C
13 | CCSC1=N/C(=C\c2ccc(-c3ccc(Br)cc3)o2)C(=O)S1 | 0.25 °C
14 | CCC(=O)c1ccc(-c2cccc(-c3ccn[nH]3)c2)s1 | 0.47 °C
15 | COc1ccc(OC)c(NC(=O)C(=S)NCc2ccco2)c1 | 0.21 °C
16 | O=C(Nc1nc2ccc(S(=O)(=O)N3CCCC3)cc2s1)c1cccs1 | 0.29 °C
17 | CCOc1ccc(NC(=O)Nc2cc(F)ccc2C)cc1 | active: 2.14 °C
18 | CCOc1ccc(C(=O)Nc2cc(C)ccn2)cc1[N+](=O)[O-] | 0.43 °C
19 | CCCOCC1CC2(CC(C)(c3csc(Nc4ccccc4)n3)OC2=O)C(=O)O1 (stereo unspecified) | 0.1 °C
20 | COc1ccc(CCC(=O)Nc2ccc(N3CCOCC3)c(Cl)c2)cc1 | 0.85 °C
21 | COc1cccc(NC(=O)Nc2cccc3ccccc23)c1 | 0.01 °C
22 | COc1cccc(-c2noc(COc3ccccc3Cl)n2)c1 | 0.18 °C
23 | CSc1cccc(NC(=O)Nc2ccc(Cn3cncn3)cc2)c1 | active: 1.3 °C

Row | Structure (SMILES) | thermal shift dTm
24 | CC(C)c1ccc(-c2csc(Nc3ccc(O)c(C(=O)O)c3)n2)cc1 | 0.81 °C
25 | COC(=O)Cc1cc(=O)n(-c2ccc(OC(F)(F)F)cc2)[nH]1 | 0.99 °C
26 | COC(=O)C1=C(C)N(c2ccc(Cl)cc2)C(=O)/C1=C\c1ccco1 | 0.01 °C
27 | CCc1ccc(NC(=O)Nc2ccc(Br)cn2)cc1 | 0.09 °C
28 | Cc1ccc(-n2[nH]c(CSc3nnnn3-c3ccccc3)cc2=O)cc1 | 0.43 °C
29 | Cc1ccc(C(=O)Nc2nc3ccccc3s2)s1 | 0.93 °C
30 | O=C(Nc1cccc(Br)c1)C1C2C3CCC(C3)C12 (stereo unspecified) | 0.21 °C
31 | CCOc1cc(Br)cc(/C=C/c2ccc3cccc(O)c3n2)c1O | 0.16 °C
32 | O=C(Nc1ccc(-c2csc(-c3ccccc3)n2)cc1)C1CCCCC1 | 0.11 °C
33 | Cc1noc(NS(=O)(=O)c2ccc(NC(=O)Nc3ccc(Cl)cc3)cc2)c1C | 0.7 °C
34 | CCOc1ccc(/C=C/C(=O)Nc2cc(OC)ccc2OC)cc1 | 0.11 °C
35 | c1ccc(COc2ccc(CNc3ccc(CNc4ncn[nH]4)cc3)cc2)cc1 | 0.3 °C
36 | CCOc1ccc(-c2cn(S(=O)(=O)c3ccc(C4CCCCC4)cc3)nc2N)cc1 | 0.21 °C
37 | COc1ccc(-n2nnc(-c3nc4ccccc4s3)c2N)cc1 | 0.2 °C
38 | Cc1ccc(S(=O)(=O)c2nc(S(C)(=O)=O)sc2NCc2ccccc2)cc1 | inactive: -7.05 °C
39 | O=C(Nc1cccc(-c2noc(COc3ccccc3)n2)c1)c1cccs1 | 0.1 °C
40 | Cc1ccccc1-c1noc(CNC(=O)c2ccc(C(C)(C)C)cc2)n1 | 0.2 °C
41 | Cc1ccc(-n2c(CCC(=O)O)ccc2-c2ccc(Br)cc2)cc1C | 0.16 °C
42 | COC(=O)c1cccc(-n2c(CCC(=O)O)ccc2-c2ccc(Br)cc2)c1 | 0.63 °C
43 | Cc1cccc(-c2noc(C(=O)NCCc3ccc(F)cc3)n2)c1 | 0.39 °C
44 | COc1cccc(NC(=O)c2ccc(Cl)c(S(=O)(=O)Nc3cccc(C)c3)c2)c1 | 0.29 °C
45 | O=C(NCCC1=CCCCC1)Nc1cccc(F)c1 | 0.19 °C
46 | O=C(CCc1ccccc1)NC(c1ccc(Cl)cc1)c1ccc2cccnc2c1O (stereo unspecified) | 0.16 °C

Row | Structure (SMILES) | thermal shift dTm
47 | COc1cccc(NC(=O)c2ccc(-c3cnn(C)c3)o2)c1 | 0.09 °C
48 | O=C(O)CC(Cc1ccc(Cl)cc1)C(=O)Nc1ccc(I)cc1 (stereo unspecified) | 0.3 °C
49 | Cc1cc(C)cc(NC(=O)Nc2cnc3ccccc3c2)c1 | inactive: -18.3 °C
50 | CCCCNC(=O)C1CCC(C(=O)NCCCC)CC1 (stereo unspecified) | 0.04 °C
51 | CN1CCN(c2ccccc2NC(=O)c2ccc(-c3cccc(Cl)c3)o2)CC1 | 0.05 °C
52 | Cc1ccc(-c2n[nH]c(-c3ccncc3)n2)cc1 | 0 °C
53 | NC(=O)c1ccc(NC(=O)CCc2nc(-c3ccccc3Cl)no2)cc1 | 0.19 °C
54 | O=C(Nc1ccc2ccccc2c1)c1ccc(-n2cnnn2)cc1 | inactive: 0 °C
55 | CSc1ccc(C2C(C#N)=C(N)Oc3cc(N(C)C)ccc32)cc1 (stereo unspecified) | 0.11 °C
56 | COc1ccc(NC(=O)NCc2ccc3[nH]c4c(c3c2)CCCC4)cc1 | active: 1.64 °C
57 | O=C(Cc1ccc(Br)cc1)Nc1ccc2[nH]ncc2c1 | 0.14 °C
58 | CCC(=O)NC(c1ccc(Cl)cc1)c1c(O)ccc2ccccc12 (stereo unspecified) | 0.33 °C
59 | COc1ccc(OC)c(NC(=O)C(=S)NCCc2ccccc2)c1 | 0.16 °C
60 | CC(Oc1ccc(-c2ccccc2)cc1)C(=O)Nc1nnc(C2CCCO2)s1 (stereo unspecified) | 0.25 °C
61 | Cc1cccc(C(=O)Nc2ccc(NC(=O)C(C)C)cc2O)c1 | 0.33 °C
62 | FC(F)(F)c1cccc(Nc2nc(-c3ccncc3)cs2)c1 | 0.02 °C
63 | CC(=O)N(CCC(c1ccc(C)cc1)c1ccco1)Cc1ccco1 (stereo unspecified) | 0.44 °C
64 | O=S(=O)(c1ccc(COc2ccc(Br)cc2)cc1)N1CCOCC1 | 0.07 °C
65 | O=C(Nc1cccc(-c2noc(/C=C/c3ccccc3)n2)c1)c1cccs1 | 0.1 °C
66 | CCCc1ccc(OCCNC(=O)CCCc2c[nH]c3ccccc23)cc1 | 0.16 °C
67 | O=C(COc1ccccc1Cl)Nc1ccccc1NC(=O)c1ccco1 | 0.05 °C
68 | COc1ccc(-c2csc(NC(=O)c3ccc(Cl)s3)n2)cc1 | 0.05 °C
69 | O=C(CSc1ncn[nH]1)Nc1ccc(/C=C/c2ccccc2)cc1 | inactive: -11.4 °C

Row | Structure (SMILES) | thermal shift dTm
70 | CN(C(=O)Nc1ccccc1)c1ccc2c(c1)nc1n2CCOC1 | 0.18 °C
71 | O=C(NCc1ccc2c(c1)OCO2)c1ccc(COc2ccc(Br)cc2)cc1 | 0.59 °C
72 | COc1cc(Nc2nc(-c3ccccc3)cs2)c(OC)cc1Cl | inactive: -0.09 °C
73 | CCc1nc2sc(C(=O)c3ccccc3)c(N)c2c2c1CCCC2 | 0.11 °C
74 | CCC(=O)Nc1cccc(NC(=S)NC(=O)c2ccco2)c1 | 0.04 °C
75 | CCc1ccc(C(=O)Nc2cccc(NC(=O)c3ccco3)c2)cc1 | active: 2.18 °C
76 | CCc1ccc(CCC(=O)Nc2ccc(I)cc2)o1 | 0.35 °C
77 | O=C(CCSc1nc2sc3c(c2c(=O)[nH]1)CCCC3)Nc1ccccc1 | 0.02 °C
78 | CCN(C(=O)Nc1ccc(Cl)cc1)c1nnc(-c2ccccc2)s1 | 0.16 °C
79 | Cc1ccc(-c2cc(-c3ccc(F)cc3)n[nH]2)c(O)c1 | active: 1.84 °C
80 | CC(C)C(=O)Nc1cccc(NC(=O)/C=C/c2ccccc2)c1 | inactive: -0.08 °C
81 | O=c1c(Cc2cc(Cl)cc(Cl)c2O)c(O)nc2n1CCCS2 | 0.39 °C
82 | CCOc1ccc(NC(=O)Nc2cc(C)ccc2F)cc1 | active: 2.42 °C
83 | CCOc1cccc(C(=O)Nc2cccc(NC(C)=O)c2)c1 | 0.23 °C
84 | CC(=O)Nc1ccc(OCc2cccc(Br)c2)cc1 | 0.12 °C
85 | COc1ccc(C(=O)CSc2n[nH]c(-c3ccccc3)n2)cc1OC | 0.2 °C
86 | O=C(O)c1ccc(-c2nc(-c3ccc(Br)cc3)c(-c3ccc(Br)cc3)[nH]2)cc1 | 0.01 °C
87 | COc1ccc(NC(=O)Nc2cc(C(F)(F)F)ccc2F)cc1OC | 0.94 °C
88 | OCc1ccc(OCc2ccc(I)cc2)cc1 | 0.45 °C
89 | CS(=O)(=O)c1ccc2nc(NC(=O)COc3ccc4c(c3)CCC4)sc2c1 | 0.21 °C
90 | c1ccc2c(c1)oc1c(Nc3ccc4c(c3)OCCO4)ncnc12 | 0.29 °C
91 | CCOc1ccc(NC(=O)Nc2cnccn2)cc1 | 0.09 °C
92 | O=C(Nc1ccc2c(c1)OCCO2)c1ccc(Br)s1 | 0.56 °C

Row | Structure (SMILES) | thermal shift dTm
93 | O=C(CN1C(=O)C2C3C=CC(C4CC34)C2C1=O)Nc1ccc(Br)cc1Cl (stereo unspecified) | 0.03 °C
94 | O=C(COc1ccc(Cl)cc1)N(Cc1ccccc1)Cc1ccccc1 | 0.05 °C
95 | O=S1(=O)N=C(Nc2ccc(S(=O)(=O)N3CCCCC3)cc2)c2ccccc21 | 0.01 °C
96 | CC(Oc1ccc(Cl)cc1Cl)C(=O)Nc1ccc(C(C)C)cc1 (stereo unspecified) | 0.05 °C
97 | Cc1ccccc1NC(=O)Nc1ccc(F)c(Cl)c1 | 0.65 °C
98 | CC(=O)c1cccc(NS(=O)(=O)c2ccc(C(=O)Nc3ccccc3)cc2)c1 | 0.04 °C
99 | Cc1ccc(O)c(-c2cc(-c3ccccc3)n[nH]2)c1 | 0.01 °C
100 | CCCC1CC(C)(c2csc(Nc3cccc(C)c3)n2)OC1=O (stereo unspecified) | 0.11 °C
101 | Cc1ccc(C2Nc3ccc(C(=O)O)cc3C3C=CCC32)cc1 (stereo unspecified) | 0.35 °C
102 | O=C(COc1ccc(Cl)cc1)N1c2ccccc2Sc2ccccc21 | 0.16 °C
103 | NC(=O)c1ccc(-c2ccccc2Oc2ccccc2)o1 | 0.23 °C
104 | Cc1nc2ncccn2c1-c1csc(Nc2ccccn2)n1 | 0.1 °C
105 | CCNS(=O)(=O)c1ccc(NC(=O)Nc2ccc3c(c2)OCO3)cc1 | 0.8 °C
106 | Cc1nonc1CN(C)C(=O)c1cc(COc2cccc(C(F)(F)F)c2)on1 | inactive: 0 °C
107 | O/N=C/c1cc(Cl)ccc1OCc1ccc(F)cc1 | 0.34 °C
108 | CC(=O)c1ccc(NC(=O)NNC(=O)Cc2ccc(Cl)c(Cl)c2)cc1 | 0.71 °C
109 | COc1ccc(NC(=S)c2nc3ccccc3s2)cc1 | 0.02 °C
110 | O=C(O)c1ccc(-n2[nH]c(-c3ccccc3)cc2=O)cc1 | 0.79 °C
111 | NC(=O)c1ccc(-n2c(CCC(=O)O)ccc2-c2ccc(Br)cc2)cc1 | 0.02 °C

Reprinted at random: 7 entries already listed, in no set order.
Row | Structure (SMILES) | thermal shift dTm
98 | CC(=O)c1cccc(NS(=O)(=O)c2ccc(C(=O)Nc3ccccc3)cc2)c1 | 0.04 °C
64 | O=S(=O)(c1ccc(COc2ccc(Br)cc2)cc1)N1CCOCC1 | 0.07 °C
10 | CC1Oc2ccc(-c3csc(NC(=O)COc4ccc(Cl)cc4)n3)cc2NC1=O (stereo unspecified) | inactive: -0.1 °C
63 | CC(=O)N(CCC(c1ccc(C)cc1)c1ccco1)Cc1ccco1 (stereo unspecified) | 0.44 °C
53 | NC(=O)c1ccc(NC(=O)CCc2nc(-c3ccccc3Cl)no2)cc1 | 0.19 °C
21 | COc1cccc(NC(=O)Nc2cccc3ccccc23)c1 | 0.01 °C
49 | Cc1cc(C)cc(NC(=O)Nc2cnc3ccccc3c2)c1 | inactive: -18.3 °C
